Drawing on publication PMC3303851, “Structural Basis of Ets1 Cooperative Binding to Widely Separated Sites on Promoter DNA” (PLoS ONE, 2012), this text covers binding for one molecule.

These are yes or no findings as the source states them, for the method shown. Some results given as binding are weak or reduced against the parent protein; the word gives no strength.

The target of this experiment is Ets1 (residues 280–441) (UniProt P14921). The experiment in a line: crystal structure; Ets1 280-441 mixed 1:1.05 with TCRα promoter dsDNA; (Ets1)2•2DNA crystals grown at 295 K, space group P2_(1), refined at 3.1 Å; asymmetric unit holds an Ets1 homodimer and two pieces of dsDNA; both purified.

B1: Ets1 (residues 280–441) (domain or fragment, UniProt P14921 280-441, looked up)
chain: VPSYDSFDSEDYPAALPNHKPKGTFKDYVRDRADLNKDKPVIPAAALAGYTGSGPIQLWQFLLELLTDKSCQSFISWTGDGWEFKLSDPDEVARRWGKRKNKPKMNYEKLSRGLRYYYDKNIIHKTAGKRYVYRFVCDLQSLLGYTPEELHAMLDVKPDADE
notes: also called Ets1 dimer; source: cloned, expressed and purified according to reported protocols [36]
For the molecule B1, the binding entry is “binds”.
